The list shows a part of the results. Many values rest on one well or one pass, so single values are uncertain.
The molecules below were run on Geomyces destructans (assay: growth inhibition relative to DMSO control; higher = stronger growth inhibition). Details: 10 µM; 15 °C; incubation time 10 days.

SMILES	growth inhibition [%]
CCN(CC)CCOC(=O)C(Cc1cccc2ccccc12)CC1CCCO1 (stereo not drawn)	-8.96
CC1(C)S[C@@H]2[C@H](NC(=O)C(C(=O)O)c3ccccc3)C(=O)N2[C@H]1C(=O)O (stereo partly drawn)	-38.4
C[C@H](N)[C@H](O)c1cccc(O)c1	0.0807
Cc1ccccc1OCC(O)CO (stereo not drawn)	-15
O=C1CN(/N=C/c2ccc([N+](=O)[O-])o2)C(=O)N1	-8.2
COc1c(-c2ccccc2)oc2c(ccc3occc32)c1=O	-2.02
Cc1c(C(=O)O)c(O)cc2c1C(=O)c1c(O)c([C@@H]3O[C@H](CO)[C@@H](O)[C@H](O)[C@H]3O)c(O)c(O)c1C2=O	-1.04
C=C[C@](C)(O)CCC=C(C)C	-7.37
Cc1cc(NS(=O)(=O)c2ccc(N)cc2)no1	-6.76
C=C[C@@H](C1=CC(=O)C(OC)=C(OC)C1=O)c1ccccc1	14.4
O=C1CN(/N=C/c2ccc(-c3ccc([N+](=O)[O-])cc3)o2)C(=O)N1	-18.7
C[C@@H]1C[C@H]2[C@@H]3CCC4=CC(=O)C=C[C@]4(C)[C@@]3(F)[C@@H](O)C[C@]2(C)[C@@]1(O)C(=O)COP(=O)(O)O	-3.41
C(=C\c1ccccc1)/CN1CCN(C(c2ccccc2)c2ccccc2)CC1	-4.26
COc1ccc(C(=O)c2ccccc2)c(O)c1O	36.7
COc1ccc(-c2oc3cc(O[C@@H]4O[C@H](CO)[C@@H](O)[C@H](O)[C@H]4O)c(OC)c(O)c3c(=O)c2OC)cc1O	-9.55
CC(C)[C@@H](C)/C=C/[C@@H](C)[C@H]1CC[C@H]2C3=CCC4CC(=O)CC[C@]4(C)[C@H]3CC[C@]12C (stereo partly drawn)	-6.28
O=C(O)c1ccccc1C(=O)Nc1ccc(S(=O)(=O)Nc2nccs2)cc1	-4.14
C[N+](C)(C)CC(=O)O	-12.7
OCCN(CCO)c1nc(N2CCCCC2)c2nc(N(CCO)CCO)nc(N3CCCCC3)c2n1	-4.98
CN1CCN(C(c2ccccc2)c2ccccc2)CC1	-18.1
C[C@]12CC[C@@H]3c4ccc(OC(=O)c5ccccc5)cc4CC[C@H]3[C@@H]1CC[C@@H]2O	-13.7
C[C@H](CCC(=O)O)[C@H]1CC[C@H]2[C@@H]3[C@@H](O)C[C@@H]4C[C@H](O)CC[C@]4(C)[C@H]3CC[C@]12C	-30.1
N[C@@H](Cc1cc(I)c(Oc2ccc(O)c(I)c2)c(I)c1)C(=O)O	-29.4
CN1CCC(=C2c3ccccc3Sc3ccccc32)CC1	-36.3

Entries shown so far that contain nitrogen in an aromatic ring, in the order listed:
SMILES	growth inhibition [%]
Cc1cc(NS(=O)(=O)c2ccc(N)cc2)no1	-6.76
O=C(O)c1ccccc1C(=O)Nc1ccc(S(=O)(=O)Nc2nccs2)cc1	-4.14
OCCN(CCO)c1nc(N2CCCCC2)c2nc(N(CCO)CCO)nc(N3CCCCC3)c2n1	-4.98

Additional structures:

SMILES	growth inhibition [%]
Nc1c2ccccc2nc2ccccc12	-2.1
NS(=O)(=O)c1cc2c(cc1C(F)(F)F)NCNS2(=O)=O	-1.44
N[C@@H](Cc1c[nH]c2ccccc12)C(=O)O	-20.7
O=C(/C=C/c1ccc(O)cc1)c1ccc(O)cc1O	13.3
Cc1c(NC(=O)c2cccnc2)c(=O)n(-c2ccccc2)n1C	-6.61
CS(=O)(=O)OCCCCOS(C)(=O)=O	5.34
Cc1cc(O)c(C=O)c(O)c1C(=O)O	-3.77
CC[C@@H]1C(=O)OC[C@@H]1Cc1cncn1C	-16.5
CN1C(=O)CC[C@H]1c1cccnc1	-9.93
CC(=O)N[C@H]1[C@H]([C@H](O)[C@H](O)CO)OC(O)(C(=O)O)C[C@@H]1O (mixture of isomers)	-2.59
COc1cc(OC)c2c(c1Cl)O[C@@]1(C(=O)CC(=O)C[C@H]1C)C2=O	-8.99
CC(=O)OCC(=O)[C@@]12OC(C)(C)O[C@@H]1C[C@H]1[C@@H]3C[C@H](F)C4=CC(=O)C=C[C@]4(C)[C@@]3(F)[C@@H](O)C[C@@]12C	6.35
c1ccc2c(CC3=NCCN3)cccc2c1	-22.2
COC(=O)C1=CO[C@@H](C)[C@H]2CN3CCc4c([nH]c5ccccc45)[C@@H]3C[C@H]12	-3.64
COC(=O)C[C@H]1C(C)(C)[C@H](O)[C@@H]2CC3=C4CC(O)O[C@@H](c5ccoc5)[C@@]4(C)CCC3[C@]1(C)C2=O (stereo partly drawn) [3,16-DIDEOXYMEXICANOLIDE-3alpha-DIOL]	-2.38
CCN(CC)CC(=O)Nc1c(C)cccc1C	-24.1
NS(=O)(=O)c1cc2c(cc1Cl)NC(C1CC3C=CC1C3)NS2(=O)=O (stereo not drawn)	-19.2
O=C1NS(=O)(=O)c2ccccc21	-0.46
CC(=O)CC(c1ccccc1)c1c(O)c2ccccc2oc1=O (stereo not drawn)	-32.7
O=c1oc2c(O)c(O)cc3c(=O)oc4c(O)c(O)cc1c4c23	-6.24
O=C(O[C@@H]1Cc2c(O)cc(O)cc2O[C@@H]1c1cc(O)c(=O)c2c(O)c(O)cc([C@H]3Oc4cc(O)cc(O)c4C[C@H]3OC(=O)c3cc(O)c(O)c(O)c3)c2c1)c1cc(O)c(O)c(O)c1	-8.19
CC(=O)O[C@H]1C[C@@]2(C)[C@H](c3ccoc3)OC(=O)[C@H]3O[C@]32[C@@]2(C)C1[C@]1(C)C(C[C@H]2OC(C)=O)C(C)(C)[C@H](OC(C)=O)C[C@@H]1OC(C)=O (stereo partly drawn) [11alpha-ACETOXYKHIVORIN]	-24.2
CC(=O)NS(=O)(=O)c1ccc(N)cc1	-23.3
C=C1CC[C@@H]2[C@](C)(CO)[C@H](O)CC[C@@]2(C)[C@@H]1C/C=C1/C(=O)OC[C@H]1O	-11.4
